Values of other authors in US20070141182A1, “Combination of multiple nonteroidal antiinflammatory drugs and muscle relaxants for local treatment of musculoskeletal pain” (priority 2005, published 2007).

Conditions: human skin, Franz diffusion cell

SMILES: CN1[C@@H]2C[C@@H](OC(=O)[C@H](CO)c3ccccc3)C[C@H]1[C@@H]1O[C@@H]12 [scopolamine, Scopolamine]
- transport rate from lecithin gel relative to aqueous solution at same conc.: about one order of magnitude higher
